# Experimental data as given in article PMC5834214.
# By UniProt entry, the sequences of proteins in these tests, tags left out.
# UniProt P09992: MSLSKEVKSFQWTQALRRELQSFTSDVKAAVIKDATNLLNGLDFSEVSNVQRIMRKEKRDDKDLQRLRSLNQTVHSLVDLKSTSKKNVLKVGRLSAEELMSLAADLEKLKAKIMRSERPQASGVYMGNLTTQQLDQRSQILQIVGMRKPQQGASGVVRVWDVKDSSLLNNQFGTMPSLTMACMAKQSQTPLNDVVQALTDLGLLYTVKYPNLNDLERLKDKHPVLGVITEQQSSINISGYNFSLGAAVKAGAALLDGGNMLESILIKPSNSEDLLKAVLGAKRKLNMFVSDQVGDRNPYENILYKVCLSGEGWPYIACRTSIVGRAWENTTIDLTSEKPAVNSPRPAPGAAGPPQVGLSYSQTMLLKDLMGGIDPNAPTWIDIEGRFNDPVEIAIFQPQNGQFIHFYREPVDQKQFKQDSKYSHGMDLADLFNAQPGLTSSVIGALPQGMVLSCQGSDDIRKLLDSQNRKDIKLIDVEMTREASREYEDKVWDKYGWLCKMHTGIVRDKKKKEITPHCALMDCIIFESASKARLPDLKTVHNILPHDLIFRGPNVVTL
# B1: Septin-9 (protein, UniProt Q9UHD8 1-586)
# chain: MKKSYSGGTRTSSGRLRRLGDSSGPALKRSFEVEEVETPNSTPPRRVQTPLLRATVASSTQKFQDLGVKNSEPSARHVDSLSQRSPKASLRRVELSGPKAAEPVSRRTELSIDISSKQVENAGAIGPSRFGLKRAEVLGHKTPEPAPRRTEITIVKPQESAHRRMEPPASKVPEVPTAPATDAAPKRVEIQMPKPAEAPTAPSPAQTLENSEPAPVSQLQSRLEPKPQPPVAEATPRSQEATEAAPSCVGDMADTPRDAGLKQAPASRNEKAPVDFGYVGIDSILEQMRRKAMKQGFEFNIMVVGQSGLGKSTLINTLFKSKISRKSVQPTSEERIPKTIEIKSITHDIEEKGVRMKLTVIDTPGFGDHINNENCWQPIMKFINDQYEKYLQEEVNINRKKRIPDTRVHCCLYFIPATGHSLRPLDIEFMKRLSKVVNIVPVIAKADTLTLEERVHFKQRITADLLSNGIDVYPQKEFDEDSEDRLVNEKFREMIPFAVVGSDHEYQVNGKRILGRKTKWGTIEVENTTHCEFAYLRDLLIRTHMQNIKDITSSIHFEAYRVKRLNEGSSAMANGMEEKEPEAPEM
# B2: Inhibitor-ĸB kinase ε (protein, UniProt Q14164 1-716)
# chain: MQSTANYLWHTDDLLGQGATASVYKARNKKSGELVAVKVFNTTSYLRPREVQVREFEVLRKLNHQNIVKLFAVEETGGSRQKVLVMEYCSSGSLLSVLESPENAFGLPEDEFLVVLRCVVAGMNHLRENGIVHRDIKPGNIMRLVGEEGQSIYKLTDFGAARELDDDEKFVSVYGTEEYLHPDMYERAVLRKPQQKAFGVTVDLWSIGVTLYHAATGSLPFIPFGGPRRNKEIMYRITTEKPAGAIAGAQRRENGPLEWSYTLPITCQLSLGLQSQLVPILANILEVEQAKCWGFDQFFAETSDILQRVVVHVFSLSQAVLHHIYIHAHNTIAIFQEAVHKQTSVAPRHQEYLFEGHLCVLEPSVSAQHIAHTTASSPLTLFSTAIPKGLAFRDPALDVPKFVPKVDLQADYNTAKGVLGAGYQALRLARALLDGQELMFRGLHWVMEVLQATCRRTLEVARTSLLYLSSSLGTERFSSVAGTPEIQELKAAAELRSRLRTLAEVLSRCSQNITETQESLSSLNRELVKSRDQVHEDRSIQQIQCCLDKMNFIYKQFKKSRMRPGLGYNEEQIHKLDKVNFSHLAKRLLQVFQEECVQKYQASLVTHGKRMRVVHETRNHLRLVGCSVAACNTEAQGVQESLSKLLEELSHQLLQDRAKGAQASPPPIAPYPSPTRKDLLLHMQELCEGMKLLASDLLDNNRIIERLNRVPAPPDV
# B3: T-complex protein 1 subunit beta (protein, UniProt P78371 1-535)
# chain: MASLSLAPVNIFKAGADEERAETARLTSFIGAIAIGDLVKSTLGPKGMDKILLSSGRDASLMVTNDGATILKNIGVDNPAAKVLVDMSRVQDDEVGDGTTSVTVLAAELLREAESLIAKKIHPQTIIAGWREATKAAREALLSSAVDHGSDEVKFRQDLMNIAGTTLSSKLLTHHKDHFTKLAVEAVLRLKGSGNLEAIHIIKKLGGSLADSYLDEGFLLDKKIGVNQPKRIENAKILIANTGMDTDKIKIFGSRVRVDSTAKVAEIEHAEKEKMKEKVERILKHGINCFINRQLIYNYPEQLFGAAGVMAIEHADFAGVERLALVTGGEIASTFDHPELVKLGSCKLIEEVMIGEDKLIHFSGVALGEACTIVLRGATQQILDEAERSLHDALCVLAQTVKDSRTVYGGGCSEMLMAHAVTQLANRTPGKEAVAMESYAKALRMLPTIIADNAGYDSADLVAQLRAAHSEGNTTAGLDMREGTIGDMAILGITESFQVKRQVLLSAAEAAEVILRVDNIIKAAPRKRVPDHHPC
# B4: Septin-7 (protein, UniProt Q16181 1-437)
# chain: MSVSARSAAAEERSVNSSTMVAQQKNLEGYVGFANLPNQVYRKSVKRGFEFTLMVVGESGLGKSTLINSLFLTDLYSPEYPGPSHRIKKTVQVEQSKVLIKEGGVQLLLTIVDTPGFGDAVDNSNCWQPVIDYIDSKFEDYLNAESRVNRRQMPDNRVQCCLYFIAPSGHGLKPLDIEFMKRLHEKVNIIPLIAKADTLTPEECQQFKKQIMKEIQEHKIKIYEFPETDDEEENKLVKKIKDRLPLAVVGSNTIIEVNGKRVRGRQYPWGVAEVENGEHCDFTILRNMLIRTHMQDLKDVTNNVHYENYRSRKLAAVTYNGVDNNKNKGQLTKSPLAQMEEERREHVAKMKKMEMEMEQVFEMKVKEKVQKLKDSEAELQRRHEQMKKNLEAQHKELEEKRRQFEDEKANWEAQQRILEQQNSSRTLEKNKKKGKIF
# B5: Putative helicase MOV-10 (protein, UniProt Q9HCE1 1-1003)
# chain: MPSKFSCRQLREAGQCFESFLVVRGLDMETDRERLRTIYNRDFKISFGTPAPGFSSMLYGMKIANLAYVTKTRVRFFRLDRWADVRFPEKRRMKLGSDISKHHKSLLAKIFYDRAEYLHGKHGVDVEVQGPHEARDGQLLIRLDLNRKEVLTLRLRNGGTQSVTLTHLFPLCRTPQFAFYNEDQELPCPLGPGECYELHVHCKTSFVGYFPATVLWELLGPGESGSEGAGTFYIARFLAAVAHSPLAAQLKPMTPFKRTRITGNPVVTNRIEEGERPDRAKGYDLELSMALGTYYPPPRLRQLLPMLLQGTSIFTAPKEIAEIKAQLETALKWRNYEVKLRLLLHLEELQMEHDIRHYDLESVPMTWDPVDQNPRLLTLEVPGVTESRPSVLRGDHLFALLSSETHQEDPITYKGFVHKVELDRVKLSFSMSLLSRFVDGLTFKVNFTFNRQPLRVQHRALELTGRWLLWPMLFPVAPRDVPLLPSDVKLKLYDRSLESNPEQLQAMRHIVTGTTRPAPYIIFGPPGTGKTVTLVEAIKQVVKHLPKAHILACAPSNSGADLLCQRLRVHLPSSIYRLLAPSRDIRMVPEDIKPCCNWDAKKGEYVFPAKKKLQEYRVLITTLITAGRLVSAQFPIDHFTHIFIDEAGHCMEPESLVAIAGLMEVKETGDPGGQLVLAGDPRQLGPVLRSPLTQKHGLGYSLLERLLTYNSLYKKGPDGYDPQFITKLLRNYRSHPTILDIPNQLYYEGELQACADVVDRERFCRWAGLPRQGFPIIFHGVMGKDEREGNSPSFFNPEEAATVTSYLKLLLAPSSKKGKARLSPRSVGVISPYRKQVEKIRYCITKLDRELRGLDDIKDLKVGSVEEFQGQERSVILISTVRSSQSFVQLDLDFNLGFLKNPKRFNVAVTRAKALLIIVGNPLLLGHDPDWKVFLEFCKENGGYTGCPFPAKLDLQQGQNLLQGLSKLSPSTSGPHSHDYLPQEREGEGGLSLQVEPEWRNEL
# Biological target: Strep-tagged nucleoprotein (NP) of lymphocytic choriomeningitis virus, encoded by rLCMV/Strep-NP (lymphocytic choriomeningitis virus (LCMV), clone 13) (UniProt P09992)
# Experiment: affinity purification with mass spectrometry
row,Binder,binding
1,B1,binds
2,B2,no binding
3,B3,binds
4,B4,binds
5,B5,binds

# These are yes or no findings as the source states them, for the method shown. Binding seen in cells or lysates may run through a third protein. Here binding means that the protein was enriched with, or labelled near, the bait; the list need not be complete. A no says only that the protein was not detected with the bait.
